The target of the assay is endogenous IRF5 of RAW264.7 macrophages (mouse (endogenous in RAW264.7)) (UniProt P56477). In words: co-IP; endogenous proteins of RAW264.7 macrophages stimulated with LPS for 10 min; immunoprecipitated with IRF5, PYK2 or isotype control antibody; 1% TX-100 lysis buffer; immunoblot.

The chains behind the UniProt entries cited, without tags or fusion partners.
UniProt P56477: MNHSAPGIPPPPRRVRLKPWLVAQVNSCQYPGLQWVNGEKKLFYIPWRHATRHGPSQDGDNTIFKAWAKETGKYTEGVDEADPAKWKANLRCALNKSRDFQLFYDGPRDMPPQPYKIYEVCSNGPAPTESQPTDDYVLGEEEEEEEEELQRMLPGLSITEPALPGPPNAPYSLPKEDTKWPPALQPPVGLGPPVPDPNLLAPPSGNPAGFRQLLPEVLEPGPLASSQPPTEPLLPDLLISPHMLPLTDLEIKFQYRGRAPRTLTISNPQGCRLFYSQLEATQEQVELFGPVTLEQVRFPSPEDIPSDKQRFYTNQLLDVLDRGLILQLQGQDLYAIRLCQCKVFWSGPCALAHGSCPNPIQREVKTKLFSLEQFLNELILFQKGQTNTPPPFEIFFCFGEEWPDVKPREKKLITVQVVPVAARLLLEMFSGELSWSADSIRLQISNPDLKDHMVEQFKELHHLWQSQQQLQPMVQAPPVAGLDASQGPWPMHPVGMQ
UniProt Q9QVP9: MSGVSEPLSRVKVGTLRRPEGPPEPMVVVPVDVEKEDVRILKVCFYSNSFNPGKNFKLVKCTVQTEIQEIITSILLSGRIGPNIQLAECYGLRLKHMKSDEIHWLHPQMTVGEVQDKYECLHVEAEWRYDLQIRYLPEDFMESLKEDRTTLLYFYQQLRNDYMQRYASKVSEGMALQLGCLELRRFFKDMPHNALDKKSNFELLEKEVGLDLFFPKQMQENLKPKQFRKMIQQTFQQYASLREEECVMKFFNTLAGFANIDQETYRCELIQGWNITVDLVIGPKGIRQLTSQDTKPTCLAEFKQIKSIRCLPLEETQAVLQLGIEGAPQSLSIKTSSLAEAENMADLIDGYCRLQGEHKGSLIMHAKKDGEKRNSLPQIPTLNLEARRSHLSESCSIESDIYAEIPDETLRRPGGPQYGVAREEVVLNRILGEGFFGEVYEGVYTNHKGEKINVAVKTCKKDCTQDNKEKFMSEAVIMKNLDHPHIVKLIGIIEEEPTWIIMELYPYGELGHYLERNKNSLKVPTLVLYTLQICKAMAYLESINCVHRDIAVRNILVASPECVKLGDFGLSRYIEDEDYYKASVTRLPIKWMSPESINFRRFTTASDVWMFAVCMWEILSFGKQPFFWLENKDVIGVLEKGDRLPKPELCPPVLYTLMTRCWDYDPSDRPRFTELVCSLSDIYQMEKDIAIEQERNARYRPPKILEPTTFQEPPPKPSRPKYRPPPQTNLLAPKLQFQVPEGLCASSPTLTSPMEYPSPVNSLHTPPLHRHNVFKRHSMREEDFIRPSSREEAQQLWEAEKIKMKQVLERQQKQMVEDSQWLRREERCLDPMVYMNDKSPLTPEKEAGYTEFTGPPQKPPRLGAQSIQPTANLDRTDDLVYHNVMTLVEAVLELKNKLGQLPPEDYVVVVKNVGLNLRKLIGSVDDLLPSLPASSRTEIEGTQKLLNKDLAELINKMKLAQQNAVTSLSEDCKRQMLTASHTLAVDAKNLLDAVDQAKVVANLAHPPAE

These are yes or no findings as the source states them, for the method shown. Binding seen in cells or lysates may run through a third protein. Some results given as binding are weak or reduced against the parent protein; the word gives no strength.

Turning to “endogenous PYK2 of RAW264.7 macrophages (from UniProt Q9QVP9 1-1009) (enzyme)”, the binding entry is on record as “binds”.
